No constants are given. Whether binding was seen depends on the method and setting.
Assays:
Test in all cases: condition: 0.25 mg/mL per protein, corresponding to approximately 3–6 μM; cross-linking; mixture of eight model proteins in solution, 2 mg/mL total (0.25 mg/mL per protein), citrate-phosphate buffer, eight pH conditions (pH 4.0-7.5), 1 mM DSS (d0/d12) for 30 min at 37 °C; Lys-C/trypsin digest, LC-MS/MS, xQuest (score ≥ 25); both purified
[1] = target: rabbit pyruvate kinase (rabbit) (UniProt P11974)
[2] = target: bovine serotransferrin (bovine) (UniProt Q29443)
[3] = target: rabbit creatine kinase M-type (rabbit) (UniProt P00563)
[4] = target: bovine lactotransferrin (bovine) (UniProt P24627)
[5] = target: T1, rabbit fructose-bisphosphate aldolase A (rabbit) (UniProt P00883)
T1 sequence: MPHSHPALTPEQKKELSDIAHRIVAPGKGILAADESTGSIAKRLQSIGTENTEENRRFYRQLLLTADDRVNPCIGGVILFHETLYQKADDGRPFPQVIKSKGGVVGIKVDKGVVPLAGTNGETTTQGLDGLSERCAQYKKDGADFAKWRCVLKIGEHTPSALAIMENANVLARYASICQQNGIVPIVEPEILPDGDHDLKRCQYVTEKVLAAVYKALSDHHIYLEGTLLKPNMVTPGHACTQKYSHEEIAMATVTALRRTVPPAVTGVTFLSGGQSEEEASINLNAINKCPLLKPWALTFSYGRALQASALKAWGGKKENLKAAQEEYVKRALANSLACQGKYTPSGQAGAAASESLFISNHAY

By UniProt entry, the sequences of proteins in these tests, tags left out. Residues count along the entry.
UniProt P11974: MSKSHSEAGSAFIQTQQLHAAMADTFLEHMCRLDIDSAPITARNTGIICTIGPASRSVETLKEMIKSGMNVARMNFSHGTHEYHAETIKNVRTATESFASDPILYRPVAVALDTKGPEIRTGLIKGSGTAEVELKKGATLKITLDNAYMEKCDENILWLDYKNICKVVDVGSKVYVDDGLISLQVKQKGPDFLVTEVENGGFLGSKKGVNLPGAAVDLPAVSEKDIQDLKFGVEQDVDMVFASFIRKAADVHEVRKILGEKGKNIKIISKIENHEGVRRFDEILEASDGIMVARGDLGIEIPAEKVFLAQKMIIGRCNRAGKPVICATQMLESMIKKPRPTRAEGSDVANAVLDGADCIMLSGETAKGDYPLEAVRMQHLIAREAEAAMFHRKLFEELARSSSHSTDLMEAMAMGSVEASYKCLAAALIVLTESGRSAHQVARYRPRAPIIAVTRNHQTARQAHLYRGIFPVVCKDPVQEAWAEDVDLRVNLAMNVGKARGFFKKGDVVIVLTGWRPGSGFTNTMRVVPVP
UniProt Q29443, residues 20-704: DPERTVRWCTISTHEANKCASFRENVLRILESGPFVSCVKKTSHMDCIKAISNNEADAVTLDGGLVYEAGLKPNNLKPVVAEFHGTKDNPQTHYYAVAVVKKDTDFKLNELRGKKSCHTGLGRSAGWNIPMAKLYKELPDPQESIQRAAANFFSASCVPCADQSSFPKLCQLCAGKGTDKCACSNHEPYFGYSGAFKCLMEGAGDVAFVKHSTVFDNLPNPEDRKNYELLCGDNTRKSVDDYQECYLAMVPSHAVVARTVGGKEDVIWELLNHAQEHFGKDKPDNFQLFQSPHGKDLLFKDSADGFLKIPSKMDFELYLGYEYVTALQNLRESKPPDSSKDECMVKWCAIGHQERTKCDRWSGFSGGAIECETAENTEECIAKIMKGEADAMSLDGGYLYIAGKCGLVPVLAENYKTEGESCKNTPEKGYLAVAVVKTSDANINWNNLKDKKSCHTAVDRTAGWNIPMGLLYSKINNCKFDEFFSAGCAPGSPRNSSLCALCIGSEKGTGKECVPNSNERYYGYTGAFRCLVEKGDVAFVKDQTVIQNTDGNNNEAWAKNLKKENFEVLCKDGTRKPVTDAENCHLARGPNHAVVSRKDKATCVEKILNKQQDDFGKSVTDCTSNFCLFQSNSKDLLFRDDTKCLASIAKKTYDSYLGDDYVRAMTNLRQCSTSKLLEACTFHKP
UniProt P00563: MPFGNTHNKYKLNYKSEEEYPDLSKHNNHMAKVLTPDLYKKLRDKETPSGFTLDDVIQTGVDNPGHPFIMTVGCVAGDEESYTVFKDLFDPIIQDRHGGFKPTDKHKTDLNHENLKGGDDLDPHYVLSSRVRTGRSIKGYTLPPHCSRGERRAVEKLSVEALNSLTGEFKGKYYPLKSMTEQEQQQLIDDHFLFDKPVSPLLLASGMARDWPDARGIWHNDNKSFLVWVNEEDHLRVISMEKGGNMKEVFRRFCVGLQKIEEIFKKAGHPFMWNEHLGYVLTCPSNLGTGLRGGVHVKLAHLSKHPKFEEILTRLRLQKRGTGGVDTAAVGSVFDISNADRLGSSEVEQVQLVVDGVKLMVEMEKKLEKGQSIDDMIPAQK
UniProt P24627, residues 20-708: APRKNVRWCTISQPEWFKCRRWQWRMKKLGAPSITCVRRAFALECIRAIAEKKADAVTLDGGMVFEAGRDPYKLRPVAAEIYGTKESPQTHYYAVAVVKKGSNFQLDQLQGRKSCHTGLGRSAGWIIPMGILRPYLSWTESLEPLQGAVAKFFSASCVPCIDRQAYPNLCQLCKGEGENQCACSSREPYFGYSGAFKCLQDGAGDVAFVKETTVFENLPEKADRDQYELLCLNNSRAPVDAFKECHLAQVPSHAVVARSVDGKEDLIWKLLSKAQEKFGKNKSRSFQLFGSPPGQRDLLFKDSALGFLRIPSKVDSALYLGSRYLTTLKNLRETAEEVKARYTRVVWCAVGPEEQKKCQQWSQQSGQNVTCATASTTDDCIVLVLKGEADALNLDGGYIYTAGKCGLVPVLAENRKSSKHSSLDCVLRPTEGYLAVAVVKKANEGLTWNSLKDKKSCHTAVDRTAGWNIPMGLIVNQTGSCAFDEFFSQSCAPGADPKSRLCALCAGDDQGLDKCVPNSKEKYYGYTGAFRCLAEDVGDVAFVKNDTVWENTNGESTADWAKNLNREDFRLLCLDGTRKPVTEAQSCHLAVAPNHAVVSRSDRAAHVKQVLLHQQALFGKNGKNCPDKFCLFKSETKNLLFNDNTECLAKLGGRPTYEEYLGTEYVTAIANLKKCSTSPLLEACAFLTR
UniProt P02769, residues 25-607: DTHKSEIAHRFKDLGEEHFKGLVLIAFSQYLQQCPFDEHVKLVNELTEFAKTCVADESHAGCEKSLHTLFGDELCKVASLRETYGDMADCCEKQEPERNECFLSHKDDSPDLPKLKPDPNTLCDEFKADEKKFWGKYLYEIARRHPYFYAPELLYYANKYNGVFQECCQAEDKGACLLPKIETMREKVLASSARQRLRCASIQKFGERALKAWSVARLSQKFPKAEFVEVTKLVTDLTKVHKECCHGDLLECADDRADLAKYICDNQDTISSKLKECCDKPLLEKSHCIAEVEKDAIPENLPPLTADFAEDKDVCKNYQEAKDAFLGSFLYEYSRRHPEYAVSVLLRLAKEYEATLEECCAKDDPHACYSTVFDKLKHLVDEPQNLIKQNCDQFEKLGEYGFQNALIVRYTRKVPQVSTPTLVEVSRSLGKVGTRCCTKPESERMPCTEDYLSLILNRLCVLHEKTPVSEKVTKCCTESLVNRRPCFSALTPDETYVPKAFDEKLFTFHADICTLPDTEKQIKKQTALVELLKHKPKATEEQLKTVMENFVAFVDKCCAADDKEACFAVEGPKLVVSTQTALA
UniProt P02789, residues 20-705: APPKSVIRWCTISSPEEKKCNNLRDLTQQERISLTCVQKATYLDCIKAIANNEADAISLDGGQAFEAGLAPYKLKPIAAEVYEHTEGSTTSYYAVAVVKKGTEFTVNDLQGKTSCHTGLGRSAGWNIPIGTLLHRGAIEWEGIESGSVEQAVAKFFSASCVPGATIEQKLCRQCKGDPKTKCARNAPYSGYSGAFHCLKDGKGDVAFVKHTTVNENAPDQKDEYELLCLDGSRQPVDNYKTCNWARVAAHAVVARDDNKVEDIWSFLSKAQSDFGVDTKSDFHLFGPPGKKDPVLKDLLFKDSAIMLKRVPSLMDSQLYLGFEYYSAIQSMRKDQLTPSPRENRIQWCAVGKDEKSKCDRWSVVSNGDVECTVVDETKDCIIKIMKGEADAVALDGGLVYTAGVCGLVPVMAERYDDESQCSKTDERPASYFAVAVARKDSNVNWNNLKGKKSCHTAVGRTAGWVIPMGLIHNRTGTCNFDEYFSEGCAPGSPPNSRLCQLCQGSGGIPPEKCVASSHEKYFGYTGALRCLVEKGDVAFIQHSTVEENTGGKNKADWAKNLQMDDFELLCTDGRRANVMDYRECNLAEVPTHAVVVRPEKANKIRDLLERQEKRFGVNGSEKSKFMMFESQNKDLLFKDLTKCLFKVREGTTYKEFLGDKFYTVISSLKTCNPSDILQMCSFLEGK

[6] = target: bovine serum albumin (bovine) (UniProt P02769)
[7] = target: chicken ovotransferrin (chicken) (UniProt P02789)
[8] = target: rabbit pyruvate kinase (rabbit), P11974; conditions: remark: other sources report otherwise

Measured: binding

B1: bovine catalase (enzyme, UniProt P00432 1-527)
chain: MADNRDPASDQMKHWKEQRAAQKPDVLTTGGGNPVGDKLNSLTVGPRGPLLVQDVVFTDEMAHFDRERIPERVVHAKGAGAFGYFEVTHDITRYSKAKVFEHIGKRTPIAVRFSTVAGESGSADTVRDPRGFAVKFYTEDGNWDLVGNNTPIFFIRDALLFPSFIHSQKRNPQTHLKDPDMVWDFWSLRPESLHQVSFLFSDRGIPDGHRHMNGYGSHTFKLVNANGEAVYCKFHYKTDQGIKNLSVEDAARLAHEDPDYGLRDLFNAIATGNYPSWTLYIQVMTFSEAEIFPFNPFDLTKVWPHGDYPLIPVGKLVLNRNPVNYFAEVEQLAFDPSNMPPGIEPSPDKMLQGRLFAYPDTHRHRLGPNYLQIPVNCPYRARVANYQRDGPMCMMDNQGGAPNYYPNSFSAPEHQPSALEHRTHFSGDVQRFNSANDDNVTQVRTFYLKVLNEEQRKRLCENIAGHLKDAQLFIQKKAVKNFSDVHPEYGSRIQALLDKYNEEKPKNAVHTYVQHGSHLSAREKANL
no binding: [1] | [2] | [3] | [4] | [5] | [6] | [7]

B2: rabbit fructose-bisphosphate aldolase A (enzyme, UniProt P00883 1-364)
chain: MPHSHPALTPEQKKELSDIAHRIVAPGKGILAADESTGSIAKRLQSIGTENTEENRRFYRQLLLTADDRVNPCIGGVILFHETLYQKADDGRPFPQVIKSKGGVVGIKVDKGVVPLAGTNGETTTQGLDGLSERCAQYKKDGADFAKWRCVLKIGEHTPSALAIMENANVLARYASICQQNGIVPIVEPEILPDGDHDLKRCQYVTEKVLAAVYKALSDHHIYLEGTLLKPNMVTPGHACTQKYSHEEIAMATVTALRRTVPPAVTGVTFLSGGQSEEEASINLNAINKCPLLKPWALTFSYGRALQASALKAWGGKKENLKAAQEEYVKRALANSLACQGKYTPSGQAGAAASESLFISNHAY
no binding: [2] | [4] | [6] | [7]

B3: rabbit fructose-bisphosphate aldolase A, P00883 1-364 (enzyme)
chain: MPHSHPALTPEQKKELSDIAHRIVAPGKGILAADESTGSIAKRLQSIGTENTEENRRFYRQLLLTADDRVNPCIGGVILFHETLYQKADDGRPFPQVIKSKGGVVGIKVDKGVVPLAGTNGETTTQGLDGLSERCAQYKKDGADFAKWRCVLKIGEHTPSALAIMENANVLARYASICQQNGIVPIVEPEILPDGDHDLKRCQYVTEKVLAAVYKALSDHHIYLEGTLLKPNMVTPGHACTQKYSHEEIAMATVTALRRTVPPAVTGVTFLSGGQSEEEASINLNAINKCPLLKPWALTFSYGRALQASALKAWGGKKENLKAAQEEYVKRALANSLACQGKYTPSGQAGAAASESLFISNHAY
no binding: [8]
